# The list shows a part of the results. These are further read-outs of the screen, such as a control signal, another cell line or another target. No call is given for them. The list favours compounds with an active or inconclusive main result. The note in brackets gives the kind of curve behind each potency; many fits are weak.
# Experiment: Cell signaling CRE-BLA (Fsk stim)
# Conditions: CHO CRE-bla reporter (cAMP response element driving beta-lactamase), forskolin EC10, beta-lactamase ratio; measured here: 460 nm blue channel
# Outline: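 The 460nm/530nm emission ratio after CCF4 loading defined %Activity, from which AC50 values were obtained. CRE-bla CHO cells received compound dilution series together with an EC10 level of NKH 477 for 3 hours at 37 degrees Celsius.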
row,SMILES,AC50
1,COCCCNC(=O)C(F)(F)C(F)(F)C(=O)NCCCOC,"5.01 µM [falling, single point]"
2,Cc1nn(-c2ccccc2)c(-c2ccccc2)c1C(=O)O,"0.00316 µM [falling, full curve, poor fit]"
3,CCOc1ccc(OCC)c(NC(=O)C2CCN(S(=O)(=O)c3cnc[nH]3)CC2)c1,"0.631 µM [falling, full curve, poor fit]"
4,O=C(NCCCN1CCCC1)c1cccc(N2CCCC2=O)c1,"2.51 µM [falling, partial curve]"
5,CCN(CC)S(=O)(=O)c1ccc2c(c1)nc(CCC(=O)OCc1c(C)noc1C)n2C,"3.16 µM [rising, partial curve]"
6,C=CCSc1nc2ccccc2n1Cc1nnc(-c2cccs2)o1,"15.8 µM [rising, single point]"
7,O=C(CSc1ccc2nnc(-c3ccncc3)n2n1)Nc1ccc2c(c1)OCCO2,"10 µM [rising, partial curve]"
8,CCCn1c(=O)[nH]c(=O)c2c1nc(-c1ccccc1OC(F)F)n2CCOC,"2.51 µM [rising, full curve]"
9,CCOc1ccccc1N1CCN(C(=O)c2cccc(-c3ccc(O)cc3)c2)CC1,"15.8 µM [falling, single point]"
10,Cc1cc(C)nc(NC(=O)c2c(-c3c(Cl)cccc3Cl)noc2C)n1,"25.1 µM [rising, single point]"
11,CCn1c2ccccc2c2cc(/C=N/n3cnnc3)ccc21,"10 µM [rising, partial curve]"
12,CC[C@@H](C)[C@H](NC(=O)OC(C)(C)C)c1nnc(S(=O)(=O)Cc2cc(C)ccc2C)o1,"7.94 µM [falling, partial curve]"
13,COc1ccc(C(=O)CSc2nnc(-c3cnccn3)n2Cc2ccco2)cc1,"10 µM [rising, partial curve]"
14,CCOC(=O)c1ccccc1NC(=O)c1ccc2c(=O)n3c(nc2c1)CCCCC3,"0.631 µM [rising, partial curve]"
15,CC1Cc2ccccc2N1C(=O)COc1cccc(-n2cnnn2)c1 (stereo not drawn),"25.1 µM [rising, single point]"
16,C(=N\c1nccs1)/c1c[nH]c2ccccc12,"0.00398 µM [falling, full curve, poor fit]"
17,N#CCCn1c(=O)c(-c2ccc(F)cc2)nc2cnc(OCc3ccccc3)nc21,"25.1 µM [rising, single point]"
18,COc1cccc(Nc2ncc3nc(-c4ccc(F)cc4)c(=O)n(CCC#N)c3n2)c1,"3.98 µM [rising, full curve]"
19,COc1ccc(-c2nc3cnc(N4CCOCC4)nc3n(CCC#N)c2=O)cc1,"3.98 µM [rising, partial curve]"
20,COc1ccc(-c2nc3cnc(N(C)C)nc3n(CCc3ccccc3)c2=O)cc1,"0.398 µM [rising, full curve]"
21,COc1cccc(C2=CC(c3cc(OC)ccc3OC)n3nnnc3N2)c1 (stereo not drawn),"7.94 µM [rising, partial curve]"
22,Cc1nn2c3cc(N4CCOCC4)ccc3nc2c2ccccc12,"0.631 µM [rising, full curve]"
23,CC(=O)Oc1ccc(N2C(=O)C3C(C2=O)C2(C)C=CC3(C)O2)cc1 (stereo not drawn),"3.98 µM [falling, full curve]"

# 2 compounds drawn at random from those above:
row,SMILES,AC50
19,COc1ccc(-c2nc3cnc(N4CCOCC4)nc3n(CCC#N)c2=O)cc1,"3.98 µM [rising, partial curve]"
16,C(=N\c1nccs1)/c1c[nH]c2ccccc12,"0.00398 µM [falling, full curve, poor fit]"

# The list goes on.

row,SMILES,AC50
1,COc1ccc(-c2nc3cnc(N(C)C)nc3n(CCC#N)c2=O)cc1,"3.98 µM [rising, partial curve]"
2,Oc1ccc2cccnc2c1,"0.1 µM [falling, partial curve]"
3,CCOc1cc(NS(=O)(=O)CC)c(OCC)cc1NC(=O)c1ccco1,"12.6 µM [rising, partial curve]"
4,CCCn1c(NC(=O)c2ccccc2)nc2ccccc21,"3.16 µM [falling, partial curve]"
5,CCOc1ccc(C2C=C(c3ccc(C)cc3)Nc3ncnn32)cc1 (stereo not drawn),"10 µM [rising, partial curve]"
6,CCOC(=O)Cn1nc(C)c(-c2ccccc2)c1N,"20 µM [falling, single point]"
7,CN1CCN(c2ncc3nc(-c4cn(C)c5ccccc45)c(=O)n(CCc4ccccc4)c3n2)CC1,"3.16 µM [rising, full curve]"
8,CN1CCN(C(=O)c2ccc3c(=O)n(CCc4ccccc4)c(=S)[nH]c3c2)CC1,"0.126 µM [falling, full curve]"
9,N=c1c2c(n(Cc3ccccc3)c3c1CCC3)CCC2,"0.794 µM [falling, partial curve]"
10,CCOC(=O)C1=C(N)Oc2cc(C)n(CCc3ccc(OC)c(OC)c3)c(=O)c2C1c1cccnc1 (stereo not drawn),"1 µM [rising, full curve]"
11,C[C@]12CCC3c4ccc(O)cc4CCC3[C@@H]1CCC2=O (stereo partly drawn),"12.6 µM [falling, single point]"
12,COc1ccc(-c2noc(CN(C(=O)c3ccc(OC(C)=O)cc3)C(C)C)n2)cc1OC,"25.1 µM [rising, single point]"
13,COc1cccc(Cn2c(=O)c(CCc3ccccc3)nc3cncnc32)c1,"0.2 µM [rising, full curve, poor fit]"
14,Cc1cccc(CN2CCN(C(=O)c3ccccc3F)CC2)c1,"0.0316 µM [falling, full curve, poor fit]"
15,O=S(=O)(/N=C(/Nc1cc(N2CCOCC2)ncn1)c1ccc(F)cc1)c1ccccc1,"20 µM [rising, single point]"
16,CCOC(=O)N1CCC(NC(=O)CCCN2C(=O)CSc3ncccc32)CC1,"0.316 µM [falling, full curve]"
17,CC(C)c1nc(N2CCCC2)c(C#N)c2c1CCCC2,"15.8 µM [rising, single point]"
18,O=C(c1ccc(Br)o1)N1CCN(C/C=C/c2ccccc2)CC1,"25.1 µM [rising, single point]"
19,CCN1CCc2c(sc(N)c2C#N)C1,"12.6 µM [rising, partial curve, poor fit]"
20,COc1cc(OC)cc(-c2nc3nc(C)c(CCC(=O)NCc4ccco4)c(C)n3n2)c1,"0.00316 µM [falling, full curve, poor fit]"
21,O=S(=O)(Nc1ccc(-c2cn3ccsc3n2)cc1)c1ccc2c(c1)OCCO2,"10 µM [rising, single point]"
22,O=C1CC(c2ccco2)Cc2nc(Nc3nc(-c4ccccc4)c4ccccc4n3)ncc21 (stereo not drawn),"1.26 µM [rising, single point]"
23,CC(C)OCCCNC(=O)c1cc2c(=O)n(C)c3ccccc3c2n1C,"2.51 µM [rising, full curve]"

# Part of the list above in another layout.
row	SMILES	AC50
1	COc1ccc(-c2nc3cnc(N(C)C)nc3n(CCC#N)c2=O)cc1	3.98 µM [rising, partial curve]
2	Oc1ccc2cccnc2c1	0.1 µM [falling, partial curve]
3	CCOc1cc(NS(=O)(=O)CC)c(OCC)cc1NC(=O)c1ccco1	12.6 µM [rising, partial curve]

# Later entries

row,SMILES,AC50
1,CC(C)(C)Cc1nnc(NS(=O)(=O)Cc2ccccc2)s1,"0.00316 µM [falling, full curve, poor fit]"
2,CCCCc1c(O)nc(SCC(=O)NCC2CCCO2)[nH]c1=O (stereo not drawn),"1.58 µM [falling, full curve, poor fit]"
3,Cc1sc2c(c1C)c(=O)n(-c1ccccc1)c1nncn21,"12.6 µM [rising, partial curve]"
4,COc1ccc(Cn2c(-c3ccco3)nc3oc4ccccc4c(=O)c3c2=O)cc1,"31.6 µM [falling, single point]"
5,CC(=O)NCCN=C(C)c1sc2ccccc2c1O,"10 µM [rising, single point]"
6,O=C(CCc1nc(-c2cccs2)no1)Nc1cnc2ccccc2c1,"0.1 µM [rising, full curve, poor fit]"
7,CCOC(=O)c1cnc(-n2cc(C)cn2)nc1Nc1ccccc1OC,"0.398 µM [rising, full curve]"
8,Cn1c(=O)c2[nH]cnc2n(-c2ccccc2)c1=O,"12.6 µM [rising, partial curve]"
9,COc1ccc(CCNC(=O)C2CCN(S(=O)(=O)c3cccc4nonc34)CC2)cc1OC,"0.501 µM [falling, full curve]"
10,CCCCC(=O)Nc1ccc(NC(=O)c2cc(OC)c(OC)c(OC)c2)cn1,"10 µM [rising, partial curve]"
11,CCn1c(=O)cc(OCC(=O)NCc2ccc(C)o2)c2ccccc21,"7.94 µM [rising, partial curve]"
12,CCc1ccc(CN2C(=O)CCC2(C)C(=O)NC2CCCC2)cc1 (stereo not drawn),"0.316 µM [rising, single point]"
13,COCCCNC(=O)CCCC(=O)NCCCOC,"3.98 µM [falling, single point]"
14,CCCCN(C)C(=O)CCC(=O)Nc1ccc2nc(N3CCOCC3)cc(C)c2c1,"20 µM [rising, single point]"
15,CCn1c(=O)c2c(n3cnnc13)-c1ccccc1CC21CCCCC1,"2.51 µM [rising, full curve]"
16,COC(=O)c1[nH]c2cc(OC)ccc2c1NC(=O)CN1CCOCC1,"12.6 µM [rising, single point]"
17,COc1ccc(C2=NOC(C(=O)NCCCN3CCOCC3)C2)cc1 (stereo not drawn),"0.1 µM [rising, full curve, poor fit]"
18,CCCn1c(C)nc2c(NCCCCN(CC)CC)nc(C)nc21,"10 µM [rising, partial curve]"
19,CCOC(=O)Cn1c(=O)c2c(nc3n2CCN3c2ccc(C)cc2)n(C)c1=O,"15.8 µM [rising, partial curve]"
20,COc1cccc(Cn2c(=O)c(CCc3ccccc3)nc3cnc(N(C)C)nc32)c1,"7.94 µM [rising, partial curve]"
21,COc1ccccc1-c1nc(NCCc2cnc[nH]2)c2ccccc2n1,"12.6 µM [rising, single point]"
22,Cc1csc(NC(=O)CSc2nc3sc(C)c(C)c3c(=O)[nH]2)n1,"2.51 µM [rising, single point]"
